The supplement of paper PMC12067093, “Discovery and optimisation of a covalent ligand for TRIM25 and its application to targeted protein ubiquitination” (Chemical Science, 2025)
Some of the results follow.

Compound: Cc1cc(ccc1-c1ccccc1)C(=O)N1CCCN(CC1)C(=O)CCl [compound 10]
Experiment: probe-labelled cysteine peptide fold change vs DMSO (competition) (log2 fold change); higher = less target engagement (more negative = stronger competition)
Conditions: THP-1, incubation time: 4 h
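Further: competitive profiling in live THP-1 cells: cysteine peptides tagged with an iodoacetamide desthiobiotin (IA-DTB) probe, intensity after compound treatment relative to DMSO-treated cells.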

HNMT_P50135_31_FLNHSTEHQCMQEFMDK (UniProt P50135)
probe-labelled cysteine peptide fold change (10 µM): -0.11
probe-labelled cysteine peptide fold change (50 µM): -0.319

HPS1_Q92902_165_EQEQCFAVEALER (UniProt Q92902)
probe-labelled cysteine peptide fold change (10 µM): 0.0503
probe-labelled cysteine peptide fold change (50 µM): 0.389

HNRNPK_P61978_185_LFQECCPHSTDR (UniProt P61978)
probe-labelled cysteine peptide fold change (10 µM): -0.0248
probe-labelled cysteine peptide fold change (50 µM): -0.148

HRAS_P01112_80_TGEGFLCVFAINNTK (UniProt P01112)
probe-labelled cysteine peptide fold change (10 µM): 0.0966
probe-labelled cysteine peptide fold change (50 µM): 0.305

HSPG2_P98160_4389_AQAGANTRPCPS (UniProt P98160)
probe-labelled cysteine peptide fold change (10 µM): -0.652
probe-labelled cysteine peptide fold change (50 µM): -0.318

HNRNPA3_P51991_196_YHTINGHNCEVKK (UniProt P51991)
probe-labelled cysteine peptide fold change (10 µM): -0.0477
probe-labelled cysteine peptide fold change (50 µM): -0.0806

HPS4_Q9NQG7_547_MNLYTHCVK (UniProt Q9NQG7)
probe-labelled cysteine peptide fold change (10 µM): 0.0158
probe-labelled cysteine peptide fold change (50 µM): -0.348

HPCAL1_P37235_38_DCPTGHLTVDEFK (UniProt P37235)
probe-labelled cysteine peptide fold change (10 µM): 0.079
probe-labelled cysteine peptide fold change (50 µM): 0.248

HNRNPF_P52597_290_YGDSEFTVQSTTGHCVHMR (UniProt P52597)
probe-labelled cysteine peptide fold change (10 µM): 0.1
probe-labelled cysteine peptide fold change (50 µM): 0.188

HSPA4L_O95757_167_SVMAAAQVAGLNCLR (UniProt O95757)
probe-labelled cysteine peptide fold change (10 µM): -0.0227
probe-labelled cysteine peptide fold change (50 µM): 0.0182

HPS5_Q9UPZ3_1085_AWSLLQECGLALELSEK (UniProt Q9UPZ3)
probe-labelled cysteine peptide fold change (10 µM): 0.116
probe-labelled cysteine peptide fold change (50 µM): 0.0637

HSPH1_Q92598_13_SVVGLDVGSQSCYIAVAR (UniProt Q92598)
probe-labelled cysteine peptide fold change (10 µM): -0.0126
probe-labelled cysteine peptide fold change (50 µM): 0.151

HSP90AA1_P07900_529_KHGLEVIYMIEPIDEYCVQQLK (UniProt P07900)
probe-labelled cysteine peptide fold change (10 µM): -0.104
probe-labelled cysteine peptide fold change (50 µM): -0.172

HSPA2_P54652_191_GCAGGEK (UniProt P54652)
probe-labelled cysteine peptide fold change (10 µM): -0.132
probe-labelled cysteine peptide fold change (50 µM): -0.342

HPS6_Q86YV9_164_AEGPSGSPAAAFSHCVCVR (UniProt Q86YV9)
probe-labelled cysteine peptide fold change (10 µM): 0.219
probe-labelled cysteine peptide fold change (50 µM): -0.0783

HSPH1_Q92598_34_CTPSVISFGSK (UniProt Q92598)
probe-labelled cysteine peptide fold change (10 µM): 0.114
probe-labelled cysteine peptide fold change (50 µM): 0.0449

HTT_P42858_202_CRPYLVNLLPCLTR (UniProt P42858)
probe-labelled cysteine peptide fold change (10 µM): -0.139
probe-labelled cysteine peptide fold change (50 µM): -0.0374

HSPA8_P11142_17_GPAVGIDLGTTYSCVGVFQHGK (UniProt P11142)
probe-labelled cysteine peptide fold change (10 µM): 0.177
probe-labelled cysteine peptide fold change (50 µM): 0.113

HPCAL1_P37235_38_DCPTGHLTVDEFKK (UniProt P37235)
probe-labelled cysteine peptide fold change (10 µM): 0.0704
probe-labelled cysteine peptide fold change (50 µM): 0.00972

HSPA4_P34932_779_ELTSTCSPIISK (UniProt P34932)
probe-labelled cysteine peptide fold change (10 µM): 0.23
probe-labelled cysteine peptide fold change (50 µM): 0.271

HNRNPU_Q00839_497_KDCEVVMMIGLPGAGK (UniProt Q00839)
probe-labelled cysteine peptide fold change (10 µM): 0.0615
probe-labelled cysteine peptide fold change (50 µM): -0.0189

HSD17B4_P51659_425_LKCEAVVADVLDK (UniProt P51659)
probe-labelled cysteine peptide fold change (10 µM): -0.0619
probe-labelled cysteine peptide fold change (50 µM): 0.114

HSPH1_Q92598_650_LCGPYEK (UniProt Q92598)
probe-labelled cysteine peptide fold change (10 µM): 0.134
probe-labelled cysteine peptide fold change (50 µM): 0.0317

HSPA4L_O95757_140_KPVADCVISIPSFFTDAERR (UniProt O95757)
probe-labelled cysteine peptide fold change (10 µM): 0.0631
probe-labelled cysteine peptide fold change (50 µM): 0.17

HSD17B10_Q99714_91_FGRVDVAVNCAGIAVASK (UniProt Q99714)
probe-labelled cysteine peptide fold change (10 µM): -0.04
probe-labelled cysteine peptide fold change (50 µM): -0.288

HSPA8_P11142_17_SKGPAVGIDLGTTYSCVGVFQHGK (UniProt P11142)
probe-labelled cysteine peptide fold change (10 µM): -0.0412
probe-labelled cysteine peptide fold change (50 µM): -0.434

HSF1_Q00613_378_CLSVACLDK (UniProt Q00613)
probe-labelled cysteine peptide fold change (10 µM): -0.219
probe-labelled cysteine peptide fold change (50 µM): -0.54

HUS1_O60921_12_IVDGACLNHFTR (UniProt O60921)
probe-labelled cysteine peptide fold change (10 µM): 0.0355
probe-labelled cysteine peptide fold change (50 µM): 0.0644

HUWE1_Q7Z6Z7_1278_MAESMLAILCHILR (UniProt Q7Z6Z7)
probe-labelled cysteine peptide fold change (10 µM): 0.0889
probe-labelled cysteine peptide fold change (50 µM): 0.213

HTATSF1_O43719_295_NMFHPMDFEDDPLVLNEIREDLRVECSK (UniProt O43719)
probe-labelled cysteine peptide fold change (10 µM): -0.0251
probe-labelled cysteine peptide fold change (50 µM): -0.488

HP1BP3_Q5SSJ5_359_TCSTTALKK (UniProt Q5SSJ5)
probe-labelled cysteine peptide fold change (10 µM): -0.166
probe-labelled cysteine peptide fold change (50 µM): -0.452

HSP90B1_P14625_645_LTESPCALVASQYGWSGNMER (UniProt P14625)
probe-labelled cysteine peptide fold change (10 µM): -0.219
probe-labelled cysteine peptide fold change (50 µM): 0.0319

HSPA1A_P0DMV8_17_AAAIGIDLGTTYSCVGVFQHGK (UniProt P0DMV8)
probe-labelled cysteine peptide fold change (10 µM): 0.828
probe-labelled cysteine peptide fold change (50 µM): 0.931

HSPA4_P34932_245_FDEVLVNHFCEEFGK (UniProt P34932)
probe-labelled cysteine peptide fold change (10 µM): -0.0483
probe-labelled cysteine peptide fold change (50 µM): 0.238

HPS3_Q969F9_398_CSAAAAREEDPYMDTTLK (UniProt Q969F9)
probe-labelled cysteine peptide fold change (10 µM): -0.0978
probe-labelled cysteine peptide fold change (50 µM): -0.368

HSPA4_P34932_146_KPVVDCVVSVPCFYTDAERR (UniProt P34932)
probe-labelled cysteine peptide fold change (10 µM): 0.153
probe-labelled cysteine peptide fold change (50 µM): -0.0976

HNRNPA3_P51991_64_WGTLTDCVVMRDPQTK (UniProt P51991)
probe-labelled cysteine peptide fold change (10 µM): 0.0469
probe-labelled cysteine peptide fold change (50 µM): -0.0934

HSD17B4_P51659_455_ELICHNQFSLFLVGSGGFGGK (UniProt P51659)
probe-labelled cysteine peptide fold change (10 µM): -0.00227
probe-labelled cysteine peptide fold change (50 µM): 0.624

HSP90AA1_P07900_374_VFIMDNCEELIPEYLNFIR (UniProt P07900)
probe-labelled cysteine peptide fold change (10 µM): 0.07
probe-labelled cysteine peptide fold change (50 µM): 0.391

HNRNPUL1_Q9BUJ2_532_AIVICPTDEDLK (UniProt Q9BUJ2)
probe-labelled cysteine peptide fold change (10 µM): -0.122
probe-labelled cysteine peptide fold change (50 µM): 0.0371

HTATIP2_Q9BUP3_90_NVNQEVVDFEKLDDYASAFQGHDVGFCCLGTTR (UniProt Q9BUP3)
probe-labelled cysteine peptide fold change (10 µM): 0.0119
probe-labelled cysteine peptide fold change (50 µM): -0.618

HNMT_P50135_31_FLNHSTEHQCMQEFMDKK (UniProt P50135)
probe-labelled cysteine peptide fold change (10 µM): -0.174
probe-labelled cysteine peptide fold change (50 µM): -0.501

HPS1_Q92902_165_LREQEQCFAVEALER (UniProt Q92902)
probe-labelled cysteine peptide fold change (10 µM): -0.00352
probe-labelled cysteine peptide fold change (50 µM): -0.0513

HP1BP3_Q5SSJ5_359_TCSTTALK (UniProt Q5SSJ5)
probe-labelled cysteine peptide fold change (10 µM): -0.118
probe-labelled cysteine peptide fold change (50 µM): 0.02

HNRNPA1_P09651_175_YHTVNGHNCEVRK (UniProt P09651)
probe-labelled cysteine peptide fold change (10 µM): -0.215
probe-labelled cysteine peptide fold change (50 µM): -0.251

HSPA4L_O95757_421_TSFEDGSGECEVFCK (UniProt O95757)
probe-labelled cysteine peptide fold change (10 µM): 0.0372
probe-labelled cysteine peptide fold change (50 µM): -0.257

HSDL1_Q3SXM5_42_SITVICDFYSLIR (UniProt Q3SXM5)
probe-labelled cysteine peptide fold change (10 µM): -0.284
probe-labelled cysteine peptide fold change (50 µM): -0.0821

HSP90AA1_P07900_597_LVTSPCCIVTSTYGWTANMER (UniProt P07900)
probe-labelled cysteine peptide fold change (10 µM): 0.0642
probe-labelled cysteine peptide fold change (50 µM): 0.0456

HSPA2_P54652_191_KGCAGGEK (UniProt P54652)
probe-labelled cysteine peptide fold change (10 µM): -0.0292
probe-labelled cysteine peptide fold change (50 µM): -0.297

HNRNPH1_P31943_290_YGDGGSTFQSTTGHCVHMR (UniProt P31943)
probe-labelled cysteine peptide fold change (10 µM): 0.0334
probe-labelled cysteine peptide fold change (50 µM): -0.0583

HNRNPLL_Q8WVV9_474_LCNDHEVLTFIK (UniProt Q8WVV9)
probe-labelled cysteine peptide fold change (10 µM): 0.0891
probe-labelled cysteine peptide fold change (50 µM): 0.0285

HNRNPH1_P31943_22_GLPWSCSADEVQR (UniProt P31943)
probe-labelled cysteine peptide fold change (10 µM): 0.101
probe-labelled cysteine peptide fold change (50 µM): 0.116

HTT_P42858_636_NMSHCR (UniProt P42858)
probe-labelled cysteine peptide fold change (10 µM): -0.461
probe-labelled cysteine peptide fold change (50 µM): -0.373

HNRNPA3_P51991_85+94_GFGFVTYSCVEEVDAAMCAR (UniProt P51991)
probe-labelled cysteine peptide fold change (10 µM): 0.36
probe-labelled cysteine peptide fold change (50 µM): 0.259

HUWE1_Q7Z6Z7_1252_AAFTCIK (UniProt Q7Z6Z7)
probe-labelled cysteine peptide fold change (10 µM): -0.276
probe-labelled cysteine peptide fold change (50 µM): 0.142

HNRNPK_P61978_184_LFQECCPHSTDR (UniProt P61978)
probe-labelled cysteine peptide fold change (10 µM): -0.00384
probe-labelled cysteine peptide fold change (50 µM): -0.203

HSPA4L_O95757_38_CTPACISLGSR (UniProt O95757)
probe-labelled cysteine peptide fold change (10 µM): 0.225
probe-labelled cysteine peptide fold change (50 µM): 0.07

HSPH1_Q92598_140_KPVTDCVISVPSFFTDAERR (UniProt Q92598)
probe-labelled cysteine peptide fold change (10 µM): -0.0465
probe-labelled cysteine peptide fold change (50 µM): 0.116

HSPA4_P34932_167_SVMDATQIAGLNCLR (UniProt P34932)
probe-labelled cysteine peptide fold change (10 µM): 0.0619
probe-labelled cysteine peptide fold change (50 µM): 0.194

HTATSF1_O43719_328_LLLFDRHPDGVASVSFRDPEEADYCIQTLDGR (UniProt O43719)
probe-labelled cysteine peptide fold change (10 µM): 0.168
probe-labelled cysteine peptide fold change (50 µM): -0.0493

HSPA4_P34932_140+146_KPVVDCVVSVPCFYTDAERR (UniProt P34932)
probe-labelled cysteine peptide fold change (10 µM): -0.0948
probe-labelled cysteine peptide fold change (50 µM): -0.274
